Molecular target: T1, PRMT5 (protein arginine N-methyltransferase 5), endogenous in U2OS cells (UniProt O14744 1-637)
T1 construct: Endogenous protein in U2OS cell lysate, detected by immunoblot with the anti-PRMT5 antibody (Upstate)
Assay: co-immunoprecipitation (HA11) from transfected U2OS cells, immunoblot

The chains behind the UniProt entries cited, without tags or fusion partners.
UniProt O14744, whole entry: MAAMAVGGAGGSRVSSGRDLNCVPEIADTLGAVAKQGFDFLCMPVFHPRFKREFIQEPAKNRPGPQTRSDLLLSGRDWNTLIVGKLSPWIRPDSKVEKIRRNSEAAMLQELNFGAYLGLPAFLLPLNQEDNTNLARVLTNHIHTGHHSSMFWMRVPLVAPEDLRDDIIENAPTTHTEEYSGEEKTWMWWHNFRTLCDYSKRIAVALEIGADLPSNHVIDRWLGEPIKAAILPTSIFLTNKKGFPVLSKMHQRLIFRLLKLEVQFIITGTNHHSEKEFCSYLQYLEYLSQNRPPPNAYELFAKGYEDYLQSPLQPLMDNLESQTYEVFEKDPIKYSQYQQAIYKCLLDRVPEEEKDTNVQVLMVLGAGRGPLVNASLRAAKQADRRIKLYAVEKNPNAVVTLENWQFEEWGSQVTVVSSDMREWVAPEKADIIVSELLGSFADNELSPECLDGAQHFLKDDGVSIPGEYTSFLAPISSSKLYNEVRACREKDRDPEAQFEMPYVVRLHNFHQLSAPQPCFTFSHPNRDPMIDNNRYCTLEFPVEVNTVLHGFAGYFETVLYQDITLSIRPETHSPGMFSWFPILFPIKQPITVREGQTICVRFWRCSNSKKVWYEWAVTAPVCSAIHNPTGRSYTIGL

binding result: no binding
B1: ectopic E2F-1 KKK mutant (HA-E2F1 R109K/R111K/R113K) expressed in cells (other)
chain: MALAGAPAGGPCAPALEALLGAGALRLLDSSQIVIISAAQDASAPPAPTGPAAPAAGPCDPDLLLFATPQAPRPTPSAPRPALGRPPVKRRLDLETDHQYLAESSGPAKGKGKHPGKGVKSPGEKSRYETSLNLTTKRFLELLSHSADGVVDLNWAAEVLKVQKRRIYDITNVLEGIQLIAKKSKNHIQWLGSHTTVGVGGRLEGLTQDLRQLQESEQQLDHLMNICTTQLRLLSEDTDSQRLAYVTCQDLRSIADPAEQMVMVIKAPPETQLQAVDSSENFQISLKSKQGPIDVFLCPEETVGGISPGKTPSQEVTSEEENRATDSATIVSPPPSSPPSSLTTDPSQSLLSLEQEPLLSRMGSLRAPVDEDRLSPLVAADSLLEHVREDFSGLLPEEFISLSPPHEALDYHFGLEEGEGIRDLFDCDFGDLTPLDF
notes: Expressed from a transfected vector in U2OS or HeLa cells and immunoprecipitated with HA11; not shown: HA tag (recognised by the HA11 antibody)

— patent US20130011497A1 (published 2013)
